From paper PMC10394331

Target: FLAG-TRIM38 (tripartite motif 38)
Test: co-IP; semiendogenous IP in primary mouse hepatocytes transfected with FLAG-TRIM38 under PA-induced metabolic stress; IP lysis buffer 20 mM Tris-HCl pH 7.4, 150 mM NaCl, 1 mM EDTA, 1% NP-40; antitag antibodies and protein G agarose beads overnight at 4°C; Western blot

Binder	binding
transforming growth factor-β-activated kinase 1 binding protein 2 (protein, UniProt Q99K90 1-693) MAQGSHQIDFQVLHDLRQKFPEVPEVVVSRCMLQNNNNLDACCAVLSQESTRYLYGEGDLNFSDESGISGLRNHMTSLNLDLQSQNVYHHGREGSRVNGSRTLTHSVSDGQLHGGQSNNELFQQEPQTAPAQVPQGFNVFGMPSTSGASNSTPHLGFHLGSKGTSNLSQQTPRFNPIMVTLAPNIQTGRSTPTSLHIHGVPPPVLNSPQGNSIYIRPYITTPSGTARQTQQHSGWVSQFNPMNPQQAYQPSQPGPWTTYPASNPLPHTSTQQPNQQGHQTSHVYMPISSPTTPQPPTIHSSGSSQSSAHSQYNIQNISTGPRKNQIEIKLEPPQRNSSSKLRSSGPRTASTSSLVNSQTLNRNQPTVYIAASPPNTDEMISRSQPKVYISANATAGDEQGMRNQPTLFISTNSGPSAASRNMSGQVSMGPAFIHHHPPKSRVLGGNSATSPRVVVTQPNTKYTFKITVSPNKPPAVSPGVVSPTFELTNLLNHPDHYVETENIQHLTDPALAHVDRISEARKLSMGSDDAAYTQALLVHQKARMERLQRELEMQKKKLDKLKSEVNEMENNLTRRRLKRSNSISQIPSLEEMQQLRSCNRQLQIDIDCLTKEIDLFQARGPHFNPSAIHNFYDNIGFVGPVPPKPKDQRSTIKAPKTQDAEDEEGAQWNCTACTFLNHPALIRCEQCEMPRHF	binds
transforming growth factor beta-activated kinase 1 (protein, UniProt Q62073 1-579) MSTASAASSSSSSSASEMIEAPSQVLNFEEIDYKEIEVEEVVGRGAFGVVCKAKWRAKDVAIKQIESESERKAFIVELRQLSRVNHPNIVKLYGACLNPVCLVMEYAEGGSLYNVLHGAEPLPYYTAAHAMSWCLQCSQGVAYLHSMQPKALIHRDLKPPNLLLVAGGTVLKICDFGTACDIQTHMTNNKGSAAWMAPEVFEGSNYSEKCDVFSWGIILWEVITRRKPFDEIGGPAFRIMWAVHNGTRPPLIKNLPKPIESLMTRCWSKDPSQRPSMEEIVKIMTHLMRYFPGADEPLQYPCQYSDEGQSNSATSTGSFMDIASTNTSNKSDTNMEQVPATNDTIKRLESKLLKNQAKQQSESGRLSLGASRGSSVESLPPTSEGKRMSADMSEIEARIVATAGNGQPRRRSIQDLTVTGTEPGQVSSRSSSPSVRMITTSGPTSEKPARSHPWTPDDSTDTNGSDNSIPMAYLTLDHQLQPLAPCPNSKESMAVFEQHCKMAQEYMKVQTEIALLLQRKQELVAELDQDEKDQQNTSRLVQEHKKLLDENKSLSTYYQQCKKQLEVIRSQQQKRQGTS	binds

These are yes or no findings as the source states them, for the method shown. In cells and extracts the contact can be indirect. A result given as binding can be weak or reduced; the word gives no strength.
